Measurements from PubChem BioAssay (Tox21).
Several values for one entry are separate records, joined by “and”; a condition that tells them apart may be missing. Identical values can stand only once. This list was built around the results that the source calls inconclusive (neither active nor inactive); the mix of calls is not that of the screen. For some of these results: Potencies of inconclusive entries are doubtful fits and often do not repeat. The source holds several records for some structures; these can differ, active in one and inactive in another. Activity calls are given as the source filed them. Unless noted, calls come from the whole dose curve.

Amino acid sequences for entries named in this document (tags omitted). A change or cut given only in a name is not applied to a line headed by its entry.
UniProt P28223, whole entry, looked up: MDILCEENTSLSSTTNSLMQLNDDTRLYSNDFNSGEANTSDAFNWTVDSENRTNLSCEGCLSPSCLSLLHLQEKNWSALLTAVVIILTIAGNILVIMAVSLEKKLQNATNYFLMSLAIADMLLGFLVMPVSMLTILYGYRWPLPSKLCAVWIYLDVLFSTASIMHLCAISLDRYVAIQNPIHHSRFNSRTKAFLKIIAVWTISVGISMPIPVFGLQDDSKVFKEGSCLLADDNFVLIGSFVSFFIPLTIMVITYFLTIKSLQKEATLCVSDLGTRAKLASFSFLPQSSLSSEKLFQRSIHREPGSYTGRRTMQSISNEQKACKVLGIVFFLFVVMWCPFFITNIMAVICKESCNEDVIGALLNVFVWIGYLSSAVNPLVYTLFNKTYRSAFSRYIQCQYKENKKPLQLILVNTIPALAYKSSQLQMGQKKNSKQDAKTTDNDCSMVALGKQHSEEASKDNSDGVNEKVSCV
UniProt P14416, whole entry, looked up: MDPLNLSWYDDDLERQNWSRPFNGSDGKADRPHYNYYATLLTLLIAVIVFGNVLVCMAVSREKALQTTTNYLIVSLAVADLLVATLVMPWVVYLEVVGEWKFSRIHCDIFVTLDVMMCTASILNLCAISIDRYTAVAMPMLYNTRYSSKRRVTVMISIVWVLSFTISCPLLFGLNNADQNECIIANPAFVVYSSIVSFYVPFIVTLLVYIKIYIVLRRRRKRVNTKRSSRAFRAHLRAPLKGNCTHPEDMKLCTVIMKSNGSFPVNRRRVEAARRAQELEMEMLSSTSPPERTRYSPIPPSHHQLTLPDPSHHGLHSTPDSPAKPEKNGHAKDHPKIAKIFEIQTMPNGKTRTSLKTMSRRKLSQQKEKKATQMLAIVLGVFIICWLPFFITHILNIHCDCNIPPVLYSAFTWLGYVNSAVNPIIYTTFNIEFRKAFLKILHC
UniProt P11229: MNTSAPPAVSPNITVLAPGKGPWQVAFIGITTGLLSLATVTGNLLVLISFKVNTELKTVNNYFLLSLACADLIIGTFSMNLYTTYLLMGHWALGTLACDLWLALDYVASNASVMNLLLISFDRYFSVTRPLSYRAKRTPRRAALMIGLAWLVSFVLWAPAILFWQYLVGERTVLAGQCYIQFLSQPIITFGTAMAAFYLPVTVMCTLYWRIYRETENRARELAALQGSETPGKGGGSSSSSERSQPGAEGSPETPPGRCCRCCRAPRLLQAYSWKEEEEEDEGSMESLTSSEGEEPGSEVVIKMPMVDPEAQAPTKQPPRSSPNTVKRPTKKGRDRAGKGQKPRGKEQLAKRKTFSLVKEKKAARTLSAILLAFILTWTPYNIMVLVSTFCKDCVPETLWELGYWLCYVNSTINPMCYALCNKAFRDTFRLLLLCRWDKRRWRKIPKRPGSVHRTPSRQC

Legend:
[1] = p53 small molecule agonists, cell-based qHTS assay with human liver microsomes: qHTS cell viability counter screen (AID 1963579); note: nearly all actives have a fitted effect of over 45% in size; note: potency is the fitted concentration of half-maximal effect
Method in brief: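 Viability of p53RE-bla cells is measured as CellTiter-Glo luminescence following a 16 h, 37 C incubation with compound, liver microsomes from human donors and NADPH.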

[2] = target: Beta-2 adrenergic receptor (Homo sapiens) (UniProt P07550); test: Adrenergic beta2 receptor (ADRB2) small molecule agonists, cell-based qHTS assay (AID 1963593); conditions: CHO-ADRB2 cells, cAMP HTRF, 30 min; note: potency is the fitted concentration of half-maximal effect;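 for activation: CHO cells stably overexpressing human ADRB2; % is set by controls: 0 for no effect and ±100 for the full control effect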
Method in brief: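 CHO cells stably over-expressing ADRB2 were plated overnight at 37C, then dosed with compounds plus a stimulation mix containing 100uM IBMX and 25uM Ro-20-1724 for 0.5hr at room temperature. cAMP was measured by HTRF competition, 1hr.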

[3] = target: Beta-2 adrenergic receptor (Homo sapiens) (UniProt P07550); test: Adrenergic beta2 receptor (ADRB2) small molecule antagonists, cell-based qHTS assay (AID 1963592); conditions: CHO-ADRB2 cells, isoproterenol-stimulated cAMP HTRF ratio, 0.5 h; activity change, negative = inhibition: at 92.4 µM (top of the series) unless noted; note: nearly all actives have a fitted effect of over 50% in size; note: potency is the fitted concentration of half-maximal effect; for activity change, negative = inhibition: % is set by controls: 0 for no effect and ±100 for the full control effect
Method in brief: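 Assay format: CHO-ADRB2 cells, 18-20hr seeding at 37C/5% CO2, then compound plus 1nM isoproterenol agonist mix for 0.5hr RT. Homogeneous time-resolved fluorescence cAMP detection after 1hr, expressed as 665/615 nm ratio.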

[4] = p53 small molecule agonists, cell-based qHTS assay with rat liver microsomes: qHTS cell viability counter screen (AID 1963580); note: nearly all actives have a fitted effect of over 45% in size; note: potency is the fitted concentration of half-maximal effect
Method in brief: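 After the beta-lactamase ratio was read, CellTiter-Glo was added to the same wells and luminescence measured at 30 min; cells had been treated 16 h at 37 C with compounds, rat liver microsomes and NADPH (0.5 mg/mL final each).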

[5] = p53 small molecule agonists, cell-based qHTS assay: qHTS cell viability counter screen (AID 1963581); note: nearly all actives have a fitted effect of over 45% in size; note: potency is the fitted concentration of half-maximal effect
Method in brief: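 Multiplexed with the reporter read, a CellTiter-Glo step (30 min, room temperature) gauges ATP-based viability of HCT-116 p53RE-bla cells after 16 h compound incubation at 37 C.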

[6] = target: 5-hydroxytryptamine receptor 2A (Homo sapiens) (UniProt P28223); test: 5-hydroxytryptamine receptor 2A (HTR2A) small molecule antagonists, cell-based qHTS assay (AID 1963586); note: potency is the fitted concentration of half-maximal effect; nearly all actives have a fitted effect of over 45% in size
Method in brief: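 CHO cells stably expressing human HTR2A were plated for 18 h at 37 C, then loaded with calcium dye for 1 h. Compounds were preincubated 5 min at room temperature before DOI (4 nM solution) was added. Kinetic fluorescence was read for 3 min.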

[7] = target: 5-hydroxytryptamine receptor 2A (Homo sapiens) (UniProt P28223); test: 5-hydroxytryptamine receptor 2A (HTR2A) small molecule agonists, cell-based qHTS assay (AID 1963587); note: potency is the fitted concentration of half-maximal effect; nearly all actives have a fitted effect of over 30% in size
Method in brief: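 CHO cells stably expressing human HTR2A, plated 18 h, loaded with calcium dye 1 h at 37 C. Agonist mode: compounds added and intracellular calcium fluorescence recorded kinetically for 2 min at 1 sec intervals.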

[8] = target: D(2) dopamine receptor (Homo sapiens) (UniProt P14416); test: Dopamine D2 receptor (DRD2) small molecule agonists, cell-based qHTS assay (AID 1963594); conditions: HEK293-DRD2 cAMP HTRF, agonist mode, 30 min; activation: at 92.4 µM (top of the series) unless noted; note: % is set by controls: 0 for no effect and ±100 for the full control effect; nearly all actives have a fitted effect of over 35% in size
Method in brief: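 HEK293 cells stably expressing human DRD2, pre-treated with PDE inhibitor Ro20-1724 (0.1 mM final) and compound 10 min at room temperature, then stimulated with NKH477 (200nM […]) for 30 min. cAMP read by HTRF (665/620 nm).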

[9] = cAMP Responsive Elements (CRE) small molecule agonists, cell-based qHTS assay (AID 1963590); conditions: CRE-bla HEK293T, beta-lactamase FRET ratio, 3 h; activation: at 92.4 µM (top of the series) unless noted; note: potency is the fitted concentration of half-maximal effect
Method in brief: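 Quantitative HTS for CRE agonists: HEK 293T CRE-bla cells, overnight plating, 3 h compound incubation at 37 C/5% CO2, then 2 h room-temperature LiveBLAzer B/G FRET substrate loading.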

[10] = cAMP Responsive Elements (CRE) small molecule antagonists, cell-based qHTS assay (AID 1963591; active = well fitted inhibition curve with a large enough effect in the signal ratio in the repeat runs, not every such curve was filed as active; inconclusive = weak or mixed curves, or effect the other way; the % refers to the signal ratio; note: potency is the fitted concentration of half-maximal effect; for activity change, negative = inhibition: % is set by controls: 0 for no effect and ±100 for the full control effect); conditions: CRE-bla HEK293T, beta-lactamase FRET ratio; activity change, negative = inhibition: at 92.4 µM (top of the series) unless noted
Method in brief: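 Fluorescence intensity from cleaved LiveBLAzer B/G substrate (2 h, room temperature) quantified CRE-bla activity in HEK 293T cells exposed 3 h to compound with 0.25 uM final NKH477.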

[11] = target: D(2) dopamine receptor (Homo sapiens) (UniProt P14416); test: Dopamine D2 receptor (DRD2) small molecule antagonists, cell-based qHTS assay (AID 1963595; active = well fitted inhibition curve with a large enough effect in the signal ratio in the repeat runs, with a control signal flat; inconclusive = weak or mixed curves, or effect the other way; the % refers to the signal ratio; note: potency is the fitted concentration of half-maximal effect; for activity change, negative = inhibition: % is set by controls: 0 for no effect and ±100 for the full control effect); conditions: HEK293-DRD2 cAMP HTRF antagonist mode; activity change, negative = inhibition: at 92.4 µM (top of the series) unless noted
Method in brief: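 Readout: HTRF cAMP, cAMP-d2 competing with cellular cAMP for anti-cAMP cryptate, read after 1 h. Cells: DRD2-HEK293. Conditions: 0.1 mM Ro20-1724, 12 nM quinpirole, 200 nM NKH477, 30 min RT.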

[12] = p53 small molecule agonists, cell-based qHTS assay (AID 1963582; active = well fitted activation curve with a large enough effect in the signal ratio in the repeat runs, not every such curve was filed as active; inconclusive = weak or mixed curves; the % refers to the signal ratio; note: potency is the fitted concentration of half-maximal effect); conditions: HCT-116 p53RE-bla reporter, beta-lactamase FRET ratio, 16 h; activation: at 66 µM (top of the series) unless noted
Method in brief: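 Beta-lactamase reporter cells (p53RE-bla) treated with compounds for 16 h at 37 C; FRET substrate, 2 h, room temperature; fluorescence intensity.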

[13] = target: Muscarinic acetylcholine receptor M1 (Homo sapiens) (UniProt P11229); test: Cholinergic receptor muscarinic 1 (CHRM1) small molecule antagonists, cell-based qHTS assay (AID 1963588); note: potency is the fitted concentration of half-maximal effect; nearly all actives have a fitted effect of over 40% in size
Method in brief: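 Compounds were tested at 15 concentrations in three independent runs. Dye-loaded CHRM1-CHO cells were exposed 5 min at room temperature before stimulation by acetylcholine added at 50nM. Intracellular calcium was read kinetically on FDSS for 3 min.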

[14] = target: Muscarinic acetylcholine receptor M1 (Homo sapiens) (UniProt P11229); test: Cholinergic receptor muscarinic 1 (CHRM1) small molecule agonists, cell-based qHTS assay (AID 1963589); note: potency is the fitted concentration of half-maximal effect; nearly all actives have a fitted effect of over 35% in size
Method in brief: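 qHTS, 15-point titration, 3 independent runs: compounds pin-transferred onto dye-loaded CHRM1-CHO cells (human M1), calcium fluorescence followed every second to detect agonism.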

[15] = activation: at 92.4 µM (top of the series) unless noted

C[n+]1ccn(Cc2ccccc2)c1
Potency [1]: inactive
Potency [2, 15]: inactive

NS(=O)(=O)c1cc2c(cc1Cl)NC(C1CC3C=CC1C3)NS2(=O)=O (stereo not given)
Potency [1]: active: 3.97 µM
activation [2, 15]: inconclusive: -30.4% [at 42.5 µM]

CN(C)[C@@H]1C(=O)C(C(=O)NCN2CCCC2)=C(O)[C@@]2(O)C(=O)C3=C(O)c4c(O)cccc4[C@@](C)(O)C3C[C@@H]12 (stereo not given in full)
Potency [1]: inconclusive: 22.3 µM [cytotoxic, single point]
activation [2, 15]: inconclusive: 2.47% [at 42.5 µM]

NC(N)=N/N=C/c1c(Cl)cccc1Cl
Potency [1]: inconclusive: 25.1 µM [rising, partial curve, poor fit]
Potency [2, 15]: inactive

OCC(F)(F)F
Potency [1]: active: 38.3 µM
activation [2, 15]: inconclusive: -15.9%

Brc1c2ccccc2cc2ccccc12
Potency [1]: inactive
activity change, negative = inhibition [3]: inconclusive: 11.8%
activation [2, 15]: inconclusive: 60.1%

C=CCCC(=O)O
Potency [1]: inactive
Potency [2, 15]: inactive

CCCCOC(=O)CCC(C)=O
Potency [1]: inconclusive: 0.408 µM [cytotoxic, single point]
activation [2, 15]: inconclusive: 8.85%

CCCOC(=O)c1ccc(N)cc1
Potency [1]: inconclusive: 5 µM [cytotoxic, single point]
Potency [2, 15]: inactive

CCN(CC)C(=O)N1CCN(C)CC1
Potency [1]: inconclusive: 22.3 µM [rising, single point]
Potency [2, 15]: inactive

CCc1cccc(CC)c1NC(=O)C(=O)O
Potency [1]: inactive
Potency [2, 15]: inactive

O=C(O[C@@H](C(=O)O)[C@@H](OC(=O)c1ccccc1)C(=O)O)c1ccccc1
Potency [1]: inactive
Potency [2, 15]: inconclusive: 311 nM [inhibitor, partial curve, poor fit]

CCCCCCCCCCCCCCNCCO
Potency [4]: inactive
Potency [5]: inconclusive: 22.3 µM [rising, single point]
Potency [6]: inconclusive: 10.3 µM [inhibitor, partial curve, poor fit]
Potency [7]: active: 23.9 µM
Potency [2, 15]: inactive
activation [8]: inconclusive: 9.05% [at 42.5 µM]

CCc1occc(=O)c1O
Potency [4]: inactive

NC(=NCCCCCCN=C(N)/N=C(\N)Nc1ccc(Cl)cc1)/N=C(\N)Nc1ccc(Cl)cc1
Potency [4]: active: 32.1 µM and inconclusive: 45.5 µM [cytotoxic, single point] and active: 41.5 µM
Potency [5]: active: 45.3 µM and inconclusive: 28.7 µM [cytotoxic, partial curve, poor fit] and inactive
Potency [6]: inconclusive: 2.64 µM [inhibitor, full curve]
Potency [7]: inconclusive: 61.1 µM [activator, single point]
Potency [9]: inconclusive: 38.4 µM [fluorescent, partial curve] [middle of 4 runs]
activity change, negative = inhibition [10]: inconclusive: -1.56% [at 42.4 µM]
Potency [2, 15]: inconclusive: 60.9 µM [inhibitor, single point] [middle of 4 runs]
activation [2, 15]: inconclusive: 7.62% [at 42.5 µM]
Potency [11]: inconclusive: 68 µM [inhibitor, single point] [middle of 5 runs]

Nc1c[n+](N2CCOCC2)no1
Potency [1]: inconclusive: 0.0013 µM
Potency [2, 15]: inactive

CC(Cl)COP(=O)(OCC(C)Cl)OCC(C)Cl (stereo not given)
Potency [4]: inactive

O=c1c2ccccc2oc2ccccc12
Potency [4]: inactive

CC[C@H]1OC(=O)[C@H](C)[C@@H](O[C@H]2C[C@@](C)(OC)[C@@H](O)[C@H](C)O2)[C@H](C)[C@@H](O[C@@H]2O[C@H](C)C[C@H](N(C)C)[C@H]2O)[C@](C)(O)C[C@@H](C)C(=O)[C@H](C)[C@@H](O)[C@]1(C)O
Potency [1]: inactive
Potency [11]: inconclusive: 52.9 µM [activator]

CO[Si](CCCn1c(=O)n(CCC[Si](OC)(OC)OC)c(=O)n(CCC[Si](OC)(OC)OC)c1=O)(OC)OC
Potency [4]: inactive
Potency [5]: inconclusive: 12.8 µM [cytotoxic, single point]

CCCCN(CCO)CCCC
Potency [4]: inactive

O=S(=O)(O)c1ccc(O)cc1
Potency [1]: inconclusive: 0.0793 µM [cytotoxic, single point]
activation ([2]; at 42.5 µM (top of the series)): inconclusive: 8.43%
activation ([2]; at 92.4 µM (top of the series)): inconclusive: 41.3%

CCC(=O)OC(C)(C)C1CC=C(C)CC1 (stereo not given)
Potency [1]: inactive
Potency [11]: inactive

CC(=O)OC[C@H]1O[C@@H](OC(C)=O)[C@H](OC(C)=O)[C@@H]1OC(C)=O
Potency [4]: inactive

COC(=O)Nc1nc2ccc(C(=O)C3CC3)cc2[nH]1
Potency [4]: inconclusive: 22.3 µM [rising, single point]
Potency [5]: inconclusive: 0.89 µM [rising, full curve]
activation [12]: inconclusive: -0.529% [at 30.3 µM]
activation [2, 15]: inconclusive: 15% [at 42.5 µM]

Cc1cc(O)c(C(C)(C)C)cc1Sc1cc(C(C)(C)C)c(O)cc1C
Potency [4]: active: 20.4 µM
Potency [5]: active: 5.75 µM
Potency [12]: inconclusive: 23.8 µM
Potency [13]: active: 26.5 µM
Potency [14]: active: 48.9 µM
Potency [9]: inconclusive: 17.2 µM [fluorescent, partial curve]
Potency [10]: inconclusive: 48.5 µM [falling, partial curve]
Potency [3]: active: 27.3 µM
Potency [2, 15]: inconclusive: 24300 nM [inhibitor, partial curve]
Potency [11]: active: 21.6 µM
